{"source": "patent US20190105344A1", "about": "“ORAL MOLECULAR IODINE COMPOSITION AND METHOD” (Iogen, LLC, priority 2016, published 2019)", "test": "Iodination of arachidonic acid by molecular iodine (thiosulfate titration, Example 1)", "assay_type": "physicochemical", "details": "1 mL iodate/iodide solution, 2 mL 1N HCl", "procedure": "A stock solution of 10 mg/ml arachidonic acid in ethanol was prepared. […] A control vial was prepared that had no arachidonic acid.\nAn iodate/iodide solution was prepared separately by adding NaIO3 (Sigma-Aldrich, St. Louis, Mo.; part number S4007-500G) and NaI (Sigma-Aldrich, St. Louis, Mo.; part number […]) to final concentrations of 3.16 and 20.55 mM, respectively, in 0.64M sodium carbonate in water.\nVials were then titrated with 0.01N sodium thiosulfate solution until the samples went from dark blue to colorless.\nSince the oxidation of iodide after acidification is diffusion controlled, the reaction of iodate with iodide is essentially instantaneous and five moles of iodide reacts with each mole of iodate to form 3 moles of molecular iodine.\nThe ratio of iodide to iodate used in this experiment insured that there was unreacted […] present in the solution after acidification with HCl."}
{"smiles": "CCCCC/C=C\\C/C=C\\C/C=C\\C/C=C\\CCCC(=O)O", "note": "[Arachidonic Acid, (5Z,8Z,11Z,14Z)-5,8,11,14-eicosatetraenoic acid]", "values": [{"measurement": "Visual Observation", "setting": "0.3 mg arachidonic acid", "result": "Solution"}, {"measurement": "Visual Observation", "setting": "1.0 mg arachidonic acid", "result": "Solution"}]}
